Screening data, single-dose tests

By UniProt entry, the sequences of proteins in these tests, tags left out.
UniProt P9WNZ1, whole entry: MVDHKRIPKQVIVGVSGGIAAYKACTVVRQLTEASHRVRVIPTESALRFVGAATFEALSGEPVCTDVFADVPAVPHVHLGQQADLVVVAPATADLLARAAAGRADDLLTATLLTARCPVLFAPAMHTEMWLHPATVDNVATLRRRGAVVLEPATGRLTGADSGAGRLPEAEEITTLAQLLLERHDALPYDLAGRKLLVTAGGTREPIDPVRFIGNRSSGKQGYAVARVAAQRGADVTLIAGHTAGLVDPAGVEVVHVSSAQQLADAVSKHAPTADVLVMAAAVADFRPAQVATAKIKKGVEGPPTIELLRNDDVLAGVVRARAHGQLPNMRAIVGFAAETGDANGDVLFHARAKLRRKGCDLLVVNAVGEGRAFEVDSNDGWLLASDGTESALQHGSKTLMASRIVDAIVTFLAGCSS

Data taken from ChEMBL document CHEMBL3988442, “University of Dundee, Small-Polar-MMV Screening Library” (2021).

Toxoplasma: 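Assay of Toxoplasma gondii numbers, read through their beta-galactosidase reporter with a colour substrate. Compounds at 10 µM. The record gives no direction; the compounds picked for IC50 retests had high values, so higher reads as fewer parasites. Size under these conditions: about 67,000 compounds, about 260 of them at 50% or above in at least one test.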
CoaBC: 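Enzyme assay of CoaBC with a phosphate dye (Biomol Green) read at 650 nm. Target: Coenzyme A biosynthesis protein CoaBC, Mycobacterium tuberculosis (UniProt P9WNZ1). Concentration: 30 µM. Higher reads as stronger inhibition, judged from the few compounds that gave an IC50. Most strong results did not repeat in a second test. Size under these conditions: about 67,000 compounds, about 40 of them at 50% or above in at least one test.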

Values are the deposited “Percent Effect”, in %. How 0% and 100% were set is not recorded. Most values in the screen are low, and negative values occur. Compounds were drawn at random from those tested, without regard to their results. A dash means the value is not listed here; it may have been measured.

| # | SMILES | Toxoplasma | CoaBC |
|---|---|---|---|
| 1 | `CNc1ccnc(N(C)Cc2cc(-c3cccs3)n[nH]2)n1` | -13.63 | 0.1206 |
| 2 | `CCCNC(=O)c1ccc(S(=O)(=O)NC2(COC)CCCC2)cc1` | 2.552 | 10.8 |
| 3 | `[H][C@]12CC[C@](O)(CC1)C(CO)N2C(=O)Nc1ccccc1` (stereo partly drawn) | -16 | - |
| 4 | `Cc1cccc(CN2CC[C@H]3CO[C@H](CNC(=O)N(C)C)[C@H]3C2)c1` | - | 10.02 |
| 5 | `Cc1cc(N2CCc3c(ncn3C)C2)nc(N)n1` | -20.15 | 4.989 |
| 6 | `Cc1c(C2CCCN(C(=O)Cc3ccccn3)C2)n2c(nc1=O)CCC2.Cl` (stereo not drawn) | 13.52 | - |
| 7 | `CNC(=O)[C@H]1C[C@@H]2CCN(Cc3nccs3)C[C@H]2O1` | - | 4.569 |
| 8 | `CCN1CCCn2c(nc(CNC(=O)c3cnoc3C)cc2=O)C1.O=C(O)C(F)(F)F` | -0.5175 | - |
| 9 | `CS(=O)(=O)Cc1nc(CN2CCC(C(F)(F)F)CC2)cs1` | -5.652 | 3.018 |
| 10 | `CCNC(=O)C1CCN(Cc2ccc(C(=O)Nc3cnns3)cc2)C1` (stereo not drawn) | 6.197 | -3.236 |
| 11 | `O=C(c1ccnnc1)N1C[C@H](OCC2CC2)[C@H]2COC[C@H]21` | - | -8.403 |
| 12 | `CC(C)NC(=O)N1CCN(c2ccc(Cl)nn2)C(=O)C1` | -4.35 | -4.474 |
| 13 | `O=C(c1ccc2c(c1)OCCCO2)N1CCCC(n2ccnc2)C1` (stereo not drawn) | -11.97 | 5.725 |
| 14 | `CN(Cc1ccco1)C(=O)CN1CCOC(Cn2cncn2)C1` (stereo not drawn) | -9.668 | 6.213 |
| 15 | `O=C(Cc1cccc(F)c1)N1CCN2C[C@H](Oc3cncnc3)C[C@H]2C1` | - | -3.548 |
| 16 | `CN1CCC(N(Cc2ccco2)S(=O)(=O)c2ccc(Cl)cc2)CC1` | 4.937 | -18.79 |
| 17 | `CC(C)(C)c1ccc(OCC(=O)O)c(CN2C[C@H]3C[C@H](O)C[C@H]3C2)c1` | - | -7.096 |
| 18 | `CCc1n[nH]c(C2CN(C(=O)Cn3ccccc3=O)CCO2)n1` (stereo not drawn) | -3.431 | 0 |
| 19 | `O=C(C(CNCc1ccccn1)c1ccccc1)N1CCOCC1` (stereo not drawn) | 15.27 | 5.076 |
| 20 | `COCC1CN(C(=O)COc2ccc(C)cc2)Cc2cn(C)nc21` (stereo not drawn) | - | 5.684 |
| 21 | `CCCn1cc(C(=O)N2CCCC(Cc3nccs3)C2)cn1` (stereo not drawn) | -6.834 | 5.422 |
| 22 | `Cc1ccc(CN(CCCn2ccnc2)Cc2c[nH]nc2C(C)(C)C)s1.O=C(O)CC(O)(CC(=O)O)C(=O)O` | -5.969 | - |
| 23 | `Cc1ccc2c(c1)C(NC1CCN(C)CC1)CCCO2` (stereo not drawn) | -12.05 | -30.19 |
| 24 | `Cc1ccc(S(=O)(=O)Cc2noc([C@@H]3C[C@@H](O)CN3C)n2)cc1` | 2.291 | 7.449 |
| 25 | `CCOc1ccc(C(=O)N2CCCC2c2c(C)nn(C)c2Cl)cn1` (stereo not drawn) | -22.34 | 11.62 |
| 26 | `Cc1cnccc1N1CCN(C(=O)CCCN2CCCCC2)CC1` | -5.318 | 5.697 |
| 27 | `Cc1c(NC(=O)c2cccc(Br)c2)c(C(=O)N(C)C)nn1C` | 13.13 | 3.464 |
| 28 | `Cc1ccc2c(c1)OCCCC2NCc1nccn1Cc1ccccc1` (stereo not drawn) | -11.69 | -3.782 |
| 29 | `[H][C@@]12C[C@@H](Oc3cncnc3)CN1CCN(C(=O)c1ccncc1)C2` | 4.064 | - |
| 30 | `Cc1nc(C2CCCN(C(=O)CO)C2)cc(N2CCOCC2)n1` (stereo not drawn) | -1.654 | -5.702 |
| 31 | `Cn1cc(CN2C[C@@H]3COC[C@]3(CNC(=O)c3ccsc3)C2)cn1` | - | 1.931 |
| 32 | `CC(CNC(=O)c1cc(Cl)ccc1I)N1CCCC1` (stereo not drawn) | 4.492 | -1.607 |
| 33 | `CC(C)CCN(C(=O)c1ccc(-n2ncc(C#N)c2N)cc1)C1CC1` | 9.382 | -9.383 |
| 34 | `COc1cccc(N2C(=O)CC3(CCCNC3)C2=O)c1.Cl` (stereo not drawn) | 4.771 | - |
| 35 | `CCn1cnnc1CN(C)Cc1nc(-c2cc(OC)ccc2F)oc1C` | -10.48 | 1.899 |
| 36 | `O=C(O)C(F)(F)F.O=C(O)C(F)(F)F.[H][C@@]12CCN(Cc3cccc(C)n3)C[C@]1(C(=O)N1CCCO1)CCO2` | 7.829 | - |
| 37 | `CS(=O)(=O)c1ccc(CN2CCCC3(C2)C(=O)Nc2ccccc23)cc1` (stereo not drawn) | -6.373 | 6.832 |
| 38 | `Cn1c(SCc2noc(C(C)(C)C)n2)nnc1C1CCS(=O)(=O)C1` (stereo not drawn) | -5.015 | 1.297 |
| 39 | `O=C(O)C(F)(F)F.[H][C@]12CCN(C(=O)NCc3ccccc3)C[C@@]1([H])OCCN(C)C2` | -27.47 | - |
| 40 | `Cc1nnc2ccc(OCCNS(C)(=O)=O)nn12` | -20.94 | -0.6361 |
| 41 | `Cc1cccc(CNc2nnc(C(C)C)o2)c1` | 2.962 | 11.45 |
| 42 | `Cc1cccnc1CN1CCN(c2noc(-c3ccccc3)n2)CC1` | 2.742 | 0.7856 |
| 43 | `CN(C)c1cc(C2CCCN(S(=O)(=O)C3CCCC3)C2)ccn1` (stereo not drawn) | -8.303 | 1.36 |
| 44 | `O=C(O)C(F)(F)F.[H][C@@]12CN(C(=O)c3ccsc3)C[C@]1([H])C(=O)N(Cc1cccnc1)C2` | 1.859 | - |
| 45 | `O=C(CCn1ccc2ccc(F)cc21)/N=c1\[nH]nc(C2CCCO2)s1` (stereo not drawn) | - | -0.3645 |
| 46 | `Cc1ncc(CN(C)CC2CCCN2c2cccnn2)s1` (stereo not drawn) | -2.418 | 9.399 |
| 47 | `CCc1cnc(C)nc1N1CCN(C(N)=O)CC1` | -2.779 | -6.8 |
| 48 | `Cc1csc(C2(NC(=O)CCc3ccncc3)CCCC2)n1` | -32.84 | -7.393 |
| 49 | `CCn1ccnc1CN1CCN(C(C)C(=O)N2CCCC2)CC1` (stereo not drawn) | -11.67 | 4.47 |
| 50 | `O=C(NC1CC1)C1CCc2nnc(-c3cccc(C(F)(F)F)c3)n21` (stereo not drawn) | 5.8 | 0.5263 |
| 51 | `Cn1cc(C2CC(=O)NC23CCN(CC2CC2)CC3)cn1` (stereo not drawn) | - | 0.6345 |
| 52 | `NC(=O)CCn1ccc(NC(=O)c2ccc(OCC3CC3)cc2)n1` | 6.804 | 3.912 |
| 53 | `O=C(O)c1cc(S(=O)(=O)Nc2cccc(F)c2F)cc2c1OCCO2` | -25.55 | 4.215 |
| 54 | `C[C@H](NC(=O)OC(C)(C)C)c1nnc(S(=O)(=O)Cc2cccc(F)c2)o1` | 10.23 | 0.2421 |
| 55 | `Cc1nn(C)c(Cl)c1C1CCCN1CC(=O)N1CCOCC1` (stereo not drawn) | -16.06 | -17.52 |
| 56 | `CCC[C@H]1CN(c2nccc(NCC)n2)C[C@@H]1NS(=O)(=O)N(C)C` | 10.08 | -45.97 |
| 57 | `Cn1cc(C(=O)CC2CCCN2C(=O)c2cncc3ccccc23)cn1` (stereo not drawn) | -39.99 | 8.094 |
| 58 | `C1CCC(c2nnc3sc(C4CCCO4)nn23)C1` (stereo not drawn) | 21.66 | 7.407 |
| 59 | `Cc1cc(NC(=O)Cc2ccccc2O)c[nH]c1=O` | -0.9611 | 10.07 |
| 60 | `NC(=O)C1CCN(C(=O)c2cccc(CN3CCOCC3)c2)CC1` | 8.142 | 7.173 |
| 61 | `COCCCNC(=O)Nc1ccc(OCc2noc(C3CC3)n2)cc1` | 1.661 | 6.746 |
| 62 | `Cc1noc(C)c1C(=O)N(C)C(C)c1ccncc1` (stereo not drawn) | -16.97 | 8.231 |
| 63 | `Cc1cc(S(C)(=O)=O)c(C)c(S(=O)(=O)N2CCCC(C)C2)c1` (stereo not drawn) | -20.97 | 3.165 |
| 64 | `COCc1cncc2c1CCN(C(=O)c1ccc(C)o1)C2` | -0.641 | 0.1269 |
| 65 | `O=C(c1cccnc1)N1CCCC(c2ncncc2-c2ccncc2)C1` (stereo not drawn) | 3.107 | -2.85 |

Once more, the final 8:

| SMILES | Toxoplasma | CoaBC |
|---|---|---|
| `C1CCC(c2nnc3sc(C4CCCO4)nn23)C1` (stereo not drawn) | 21.66 | 7.407 |
| `Cc1cc(NC(=O)Cc2ccccc2O)c[nH]c1=O` | -0.9611 | 10.07 |
| `NC(=O)C1CCN(C(=O)c2cccc(CN3CCOCC3)c2)CC1` | 8.142 | 7.173 |
| `COCCCNC(=O)Nc1ccc(OCc2noc(C3CC3)n2)cc1` | 1.661 | 6.746 |
| `Cc1noc(C)c1C(=O)N(C)C(C)c1ccncc1` (stereo not drawn) | -16.97 | 8.231 |
| `Cc1cc(S(C)(=O)=O)c(C)c(S(=O)(=O)N2CCCC(C)C2)c1` (stereo not drawn) | -20.97 | 3.165 |
| `COCc1cncc2c1CCN(C(=O)c1ccc(C)o1)C2` | -0.641 | 0.1269 |
| `O=C(c1cccnc1)N1CCCC(c2ncncc2-c2ccncc2)C1` (stereo not drawn) | 3.107 | -2.85 |